{"source": "patent US20220186240A1", "about": "“FLAVONE 7-O-METHYLTRANSFERASE GENE AND USE FOR SAME” (Suntory Holdings Limited, priority 2019, published 2022)", "experiment": "Detection of swertisin in oboushibana organs by HPLC pigment analysis", "set-up": "species or system oboushibana (Commelina communis var. hortensis)"}
{"smiles": "COc1cc2oc(-c3ccc(O)cc3)cc(=O)c2c(O)c1[C@@H]1O[C@H](CO)[C@@H](O)[C@H](O)[C@H]1O", "note": "[Swertisin, apigenin 7-methyl-6-C-glycoside]", "values": [{"measurement": "Swertisin (mg content per 1 g petal fresh weight)", "setting": "oboushibana bract", "value": "0.000 mg content per 1 g petal fresh"}, {"measurement": "Swertisin (mg content per 1 g petal fresh weight)", "setting": "oboushibana leaf", "value": "0.000 mg content per 1 g petal fresh"}, {"measurement": "Swertisin (mg content per 1 g petal fresh weight)", "setting": "oboushibana petals Stage 1", "value": "3.429 mg content per 1 g petal fresh"}, {"measurement": "Swertisin (mg content per 1 g petal fresh weight)", "setting": "oboushibana petals Stage 2", "value": "12.081 mg content per 1 g petal fresh"}, {"measurement": "Swertisin (mg content per 1 g petal fresh weight)", "setting": "oboushibana petals Stage 3", "value": "3.729 mg content per 1 g petal fresh"}]}
